Laboratory results taken from PubChem BioAssay AID504444 (National Center for Advancing Translational Sciences (NCATS), 2011).
Among all 360,000 compounds or so, about 7,500 (2.1%) were called active. The inconclusive results got no clear call from the source; some entries with a clear call stand among them for comparison. The call rests on the fitted dose curve; in most records, active means well fitted inhibition curve with a large enough effect; inconclusive means small, poorly fitted or top-dose-only effect, or effect the other way; inactive means flat fitted curve, though single readings scatter. Where the call is inconclusive, the potency comes from a doubtful curve fit.

Assay: Nrf2 qHTS screen for inhibitors; further: nearly all actives have a fitted effect of over 60% in size
Conditions: A549 ARE-Fluc reporter, luciferase luminescence, 18-24 h; activity change, negative = inhibition: at 46 µM (top of the series)
Method in brief: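 A549 ARE_Fluc cells, 5000/well, 5% FBS OPTI-MEM; compounds in dose-response, 18-24 h at 37 °C/5% CO2; CellTiter-Fluor viability read (Ex 405/Em 525), then BugLite luciferase luminescence = Nrf2 activity.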
On the % scale 0 is the no-effect control and ±100 the full control effect; potency means the concentration at half of the fitted maximal effect.

Structure (SMILES)	Potency	activity change, negative = inhibition
O=C(Nc1cccc(F)c1)c1c(O)c2ccccc2[nH]c1=O	inconclusive: 5.8 µM [activator, partial curve]	–
COc1cc2c(cc1OC)CN(CC(=O)Nc1cccc([N+](=O)[O-])c1)CC2	inconclusive: 3.66 µM [falling, full curve]	–
CCSc1nnc(NC(=O)c2ccc(Br)s2)s1	inactive	–
O=C1c2cccc(OCc3ccc(F)cc3)c2CCN1Cc1ccccc1	inconclusive: 23.1 µM [falling, single point]	–
CC(C)OC(=O)c1ccc(N2CCN(c3ccccc3F)CC2)nc1	inactive	–
COc1cc(/C=C/C(=O)OCC(=O)N2CCCc3ccccc32)ccc1O	inconclusive: 20.6 µM [falling, partial curve]	–
COc1ccc(OC)c(C(C)NC(=O)c2ccc(Br)cc2)c1 (stereo not drawn)	inactive	–
COC(=O)N[C@@H]1C[C@H]2[C@@H]3CC[C@H]4C[C@@H](OC)CC[C@]4(C)[C@H]3CC[C@]12C	inconclusive: 16.4 µM [falling, single point]	–
O=C(NNc1nc2ccccc2s1)c1ccc(F)cc1	inactive	–
NC(N)=N/N=C/c1ccc(Br)cc1	inconclusive: 9.2 µM [falling, partial curve]	–
O=C1CCCc2c1[nH]c1ccc(CN3CCCCC3)cc21	inactive	–
CCn1c2ccccc2c2cc(/C=N/n3c(-c4cc(C)[nH]n4)n[nH]c3=S)ccc21	inconclusive: 20.6 µM [falling, single point]	–
CCN1C(=O)c2ccccc2S(=O)c2ccc(C(=O)N3CCN(c4cccc(C)c4)C(C)C3)cc21 (stereo not drawn)	active: 16.4 µM	–
CC1=C(c2ccc(C)cc2)S(=O)(=O)NC1=NCc1cccc(F)c1	inconclusive: 9.2 µM [falling, partial curve, poor fit]	–
O=C(c1ccc2c(c1)OCO2)N1CCc2ccccc21	inconclusive: 13 µM [activator, partial curve]	–
O=C(Nc1ccc(Cl)cc1N1CCOCC1)C1CC1	inconclusive: 0.164 µM [falling, full curve, poor fit]	–
O=C(Nc1ccc2c(c1)OCCO2)c1ccc(NC(=O)C2CCCO2)cc1 (stereo not drawn)	inconclusive: 0.58 µM [falling, partial curve, poor fit]	–
CCc1ccc2c(c1)C1(NN=C(c3ccc(C)cc3)S1)C(=O)N2 (stereo not drawn)	inconclusive: 29.1 µM [activator, single point]	–
CCOc1ccc(NC(=O)c2ccccc2NS(=O)(=O)c2ccc(F)cc2)c([N+](=O)[O-])c1	inconclusive: 29.1 µM [falling, single point]	–
N#C/C(=C(/O)COc1ccc(Cl)cc1)c1nc2ccccc2s1	active: 23.1 µM	–
CN1/C(=C\C(=O)COC(=O)c2ccc(O)cc2)C(C)(C)c2ccccc21	inactive	–
CCO/N=C/C1=C(O)C(C(=O)OC)C(C)(C)CC1=O (stereo not drawn)	inactive	–
O=C(NCC(=O)N1CCN(c2cccc(Cl)c2)CC1)c1ccc(Br)o1	inactive	–

Structure (SMILES)	Potency	activity change, negative = inhibition
CCOC(=O)c1ccc(NS(=O)(=O)c2cc(-c3onc(C)c3C)ccc2C)cc1	active: 20.6 µM	–
CC(=O)Oc1ccc([N+](=O)[O-])cc1N1C(=O)c2ccccc2C1=O	inconclusive: 5.17 µM [activator, partial curve, poor fit]	–
CCC(=O)c1ccc(OCC(=O)Nc2cccc(S(=O)(=O)N3CCCCCC3)c2)cc1	inconclusive: 25.9 µM [falling, partial curve, poor fit]	–
CC(C)Oc1ccccc1-c1cc(C(=O)N/N=C/c2cccnc2)c2ccccc2n1	inconclusive: 29.1 µM [activator, single point]	–
Cc1ccc(S(=O)(=O)Nc2nc3ccccc3nc2NCc2ccco2)cc1C	active: 20.6 µM	–
CCOC(=O)c1ccc(NC(=O)Cn2cc(C(=O)c3ccc(CC)cc3)c(=O)c3ccc(C)nc32)cc1	inconclusive: 20.6 µM [falling, single point]	–
Cc1cccc(NC(=O)Cn2c(=O)n(CC3CCCO3)c(=O)c3ccccc32)c1 (stereo not drawn)	inconclusive: 29.1 µM [activator, single point]	–
CC(=O)c1cn(CC(=O)Nc2ccc(C)cc2C)c2ccccc12	inconclusive: 23.1 µM [falling, single point]	–
C/C(=N/NC(=O)c1ccccn1)c1ccco1	inconclusive: 20.6 µM [falling, single point]	–
CCOC(=O)c1cnc2ccccc2c1NCCc1ccc(OC)c(OC)c1	inconclusive: 13 µM [falling, partial curve, poor fit]	–
C[C@H](CO)N1C[C@H](C)[C@@H](CN(C)S(C)(=O)=O)Oc2ccc(NC(=O)C3CCCCC3)cc2C1=O	inactive	–
CCN1CCN(C2=C(NS(=O)(=O)c3ccc(C)cc3)C(=O)c3ccccc3C2=O)CC1	inconclusive: 16.4 µM [falling, single point]	–
CC(OC(=O)/C=C/c1ccc2ccccc2n1)C(=O)N(C)c1ccccc1 (stereo not drawn)	inactive	–
NC(=O)C1CC(=O)N(c2ccc(OCC(=O)Nc3cccc(C(F)(F)F)c3)cc2)C1 (stereo not drawn)	inconclusive: 32.6 µM [falling, single point]	–
Cc1onc(-c2ccccc2Cl)c1C(=O)Oc1cccc2cccnc12	inconclusive: 13 µM [falling, partial curve, poor fit]	–
CCc1cc(=O)oc2c3c(cc(OCC(=O)NCc4ccccn4)c12)OC(C)(C)CC3	inconclusive: 14.6 µM [falling, partial curve, poor fit]	–
O=c1[nH]c(-c2ccccn2)nc2ccccc12	inconclusive: 18.4 µM [falling, single point]	–
Cc1nc2ccc(NS(=O)(=O)c3ccc4c(c3)OCCO4)cc2s1	active: 2.91 µM	–
COc1ccc(NC(=O)CN2CCCN(Cc3ccc(Cl)cc3)S2(=O)=O)cc1Cl	–	inactive: -9.94% [at 9.27 µM]
CSc1ccccc1OCc1cc(C(=O)N(C)Cc2ccncn2)no1	inconclusive: 5.17 µM [activator, partial curve]	–
COc1ccccc1CNC(=O)CN(C)S(=O)(=O)c1cccc2cccnc12	inactive	–
Cc1cccc(C)c1NC(=O)COC(=O)c1cc(S(=O)(=O)Nc2ccc(Cl)cc2)ccc1O	inactive	–
O=C(CCS(=O)(=O)c1cc2c(cc1Cl)NC(=O)CO2)NCc1ccccc1Cl	inconclusive: 29.1 µM [falling, single point]	–

Structure (SMILES)	Potency	activity change, negative = inhibition
Cc1ccc(CNC(=O)CSc2ncccn2)cc1	inconclusive: 5.17 µM [activator, partial curve]	–
O=C(NN1C(=O)/C(=C/c2cccnc2)SC1=S)C(c1ccccc1)c1ccccc1	inconclusive: 32.6 µM [falling, single point]	–
CCN(CC)S(=O)(=O)c1cccc(NC(=O)CN(C)Cc2cccc(OC)c2)c1	inconclusive: 29.1 µM [falling, single point]	–
NC[C@H](Cc1ccccc1)NCCCCC1CCCCC1	inconclusive: 0.0052 µM [falling, full curve, poor fit]	–
CSCCC(N=CC1=C(O)CC(C)(C)CC1=O)C(=O)O (stereo not drawn)	inconclusive: 29.1 µM [activator, single point]	–
Cc1noc(C)c1C(=O)Nc1ccc(S(=O)(=O)N2CCCCC2)cc1	inconclusive: 11.6 µM [falling, partial curve, poor fit]	–
O=C(OCC(=O)N1CCCc2ccccc21)c1ccccc1[N+](=O)[O-]	inconclusive: 11.6 µM [activator, single point]	–
Cc1c(/C=N/NC(=O)c2cccnc2)c2ccccc2n1Cc1ccccc1	active: 6.51 µM	–
O=C1C=CC2(C=C1)O[C@H](Cc1ccccc1)[C@@H](Cc1ccccc1)O2	inconclusive: 29.1 µM [falling, single point]	–
O=[N+]([O-])c1cc(-c2ccccc2)cc([N+](=O)[O-])c1O	active: 16.4 µM	–
CCOc1ccccc1NC(=O)CN(C)S(=O)(=O)c1ccc(OC)c(C)c1	inconclusive: 23.1 µM [falling, partial curve]	–
Cc1cc(C(=O)NN=C2C3CC4CC(C3)CC2C4)c2ccccc2n1	inconclusive: 0.0651 µM [falling, full curve, poor fit]	–
COc1ccc(Nc2nnc(-c3ccc(N4CCOCC4)c([N+](=O)[O-])c3)c3ccccc23)cc1	inactive	–
CCC(CC)N1CCN(CC2CC=CCC2)CC1 (stereo not drawn)	inconclusive: 8.2 µM [activator, partial curve]	–
CCOc1ccc(-c2nc(Cn3c(=O)cc(-c4ccccc4)c4c(C)nn(C)c43)c(C)o2)cc1	active: 5.8 µM	–
CCc1cc(C(=O)NNC(=S)Nc2cccc(C)c2)cs1	inconclusive: 13 µM [activator, partial curve, poor fit]	–
COc1ccc(NC(=O)c2ccccc2NC(=O)CSc2ccc(C)cc2)cc1	inconclusive: 9.2 µM [falling, single point]	–
Cc1ccc2nsnc2c1S(=O)(=O)NCc1ccc2c(c1)OCO2	inconclusive: 6.51 µM [falling, partial curve, poor fit]	–
Nc1c(C(=O)Nc2ccccc2)sc2nc3c(c(-c4ccco4)c12)CCCC3	inconclusive: 13 µM [falling, partial curve, poor fit]	–
Cc1ccc(Nc2nc(N)c3ccccc3n2)cc1Cl	inconclusive: 4.61 µM [activator, partial curve]	–
O=C(CCC(=O)c1cccs1)c1cccs1	inconclusive: 2.31 µM [activator, full curve]	–
O=C(O)c1ccccc1C(=O)N1CCN(C(=O)c2ccccc2Cl)CC1	inconclusive: 18.4 µM [activator, partial curve, poor fit]	–

Taken from the results shown, three compounds:
Structure (SMILES)	Potency	activity change, negative = inhibition
CCOc1ccc(-c2nc(Cn3c(=O)cc(-c4ccccc4)c4c(C)nn(C)c43)c(C)o2)cc1	active: 5.8 µM	–
CCc1cc(C(=O)NNC(=S)Nc2cccc(C)c2)cs1	inconclusive: 13 µM [activator, partial curve, poor fit]	–
COc1ccc(NC(=O)c2ccccc2NC(=O)CSc2ccc(C)cc2)cc1	inconclusive: 9.2 µM [falling, single point]	–

Record cards, as listed above. Order of values: Potency | activity change, negative = inhibition
`Cc1onc(-c2ccccc2Cl)c1C(=O)Oc1cccc2cccnc12` in the list: inconclusive: 13 µM [falling, partial curve, poor fit] | –
`NC[C@H](Cc1ccccc1)NCCCCC1CCCCC1` in the list: inconclusive: 0.0052 µM [falling, full curve, poor fit] | –
